These are yes or no findings as the source states them, for the method shown. For some of these results: In cells and extracts the contact can be indirect. Some results given as binding are weak or reduced against the parent protein; the word gives no strength. Where a sequence is shown, tags or fusion partners need not be part of it.

Results on three molecules are retold here after paper PMC4852461, “A closed conformation of the Caenorhabditis elegans separase–securin complex” (Open Biology, 2016).

Experiment [1] deals with T1, His6-tagged full-length C. elegans separase (C. elegans) (UniProt G5ED39).
T1 sequence: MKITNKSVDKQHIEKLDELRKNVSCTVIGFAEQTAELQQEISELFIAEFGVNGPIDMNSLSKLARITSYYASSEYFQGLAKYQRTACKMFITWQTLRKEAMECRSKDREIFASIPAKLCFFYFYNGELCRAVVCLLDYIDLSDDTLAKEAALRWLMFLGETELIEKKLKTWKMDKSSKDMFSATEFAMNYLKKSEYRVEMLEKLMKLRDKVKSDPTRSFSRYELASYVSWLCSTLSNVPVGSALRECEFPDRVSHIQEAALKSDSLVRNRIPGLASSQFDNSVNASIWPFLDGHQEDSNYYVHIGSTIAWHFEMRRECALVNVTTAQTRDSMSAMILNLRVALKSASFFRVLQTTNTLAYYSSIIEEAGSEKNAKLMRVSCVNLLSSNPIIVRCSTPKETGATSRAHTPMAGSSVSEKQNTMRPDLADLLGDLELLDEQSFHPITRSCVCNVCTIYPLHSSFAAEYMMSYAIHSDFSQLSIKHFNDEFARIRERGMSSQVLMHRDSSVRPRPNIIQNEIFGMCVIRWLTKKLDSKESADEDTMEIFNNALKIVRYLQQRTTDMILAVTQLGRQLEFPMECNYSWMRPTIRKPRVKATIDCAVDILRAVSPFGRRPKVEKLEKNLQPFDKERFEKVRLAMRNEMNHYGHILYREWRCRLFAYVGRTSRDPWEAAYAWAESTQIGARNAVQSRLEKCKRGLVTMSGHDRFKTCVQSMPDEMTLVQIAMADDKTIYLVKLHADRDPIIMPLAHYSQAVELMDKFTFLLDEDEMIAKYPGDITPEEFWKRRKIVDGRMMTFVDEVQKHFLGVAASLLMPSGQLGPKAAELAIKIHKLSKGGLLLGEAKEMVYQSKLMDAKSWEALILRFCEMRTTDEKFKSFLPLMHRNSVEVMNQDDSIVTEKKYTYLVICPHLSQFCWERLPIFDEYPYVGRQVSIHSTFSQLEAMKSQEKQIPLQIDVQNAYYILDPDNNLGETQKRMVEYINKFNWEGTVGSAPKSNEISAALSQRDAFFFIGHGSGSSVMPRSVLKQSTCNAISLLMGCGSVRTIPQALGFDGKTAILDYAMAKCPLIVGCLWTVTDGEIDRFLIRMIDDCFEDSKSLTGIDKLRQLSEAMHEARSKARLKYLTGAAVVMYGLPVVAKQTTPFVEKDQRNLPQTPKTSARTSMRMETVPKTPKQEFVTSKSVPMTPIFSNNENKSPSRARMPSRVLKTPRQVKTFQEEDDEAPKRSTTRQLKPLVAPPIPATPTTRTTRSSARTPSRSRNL
The experiment is described as follows: SEC; full-length separase co-expressed and purified with securin from Sf9 cells; fractions analysed by SDS-PAGE; Superdex 200 16/60 or Superose 6 10/300 in Tris or phosphate buffer; both purified. For orientation: In gel filtration, larger molecules generally elute earlier.

The target in experiment [2] is T2, strep II-tagged full-length C. elegans separase (C. elegans) (UniProt G5ED39).
T2 sequence: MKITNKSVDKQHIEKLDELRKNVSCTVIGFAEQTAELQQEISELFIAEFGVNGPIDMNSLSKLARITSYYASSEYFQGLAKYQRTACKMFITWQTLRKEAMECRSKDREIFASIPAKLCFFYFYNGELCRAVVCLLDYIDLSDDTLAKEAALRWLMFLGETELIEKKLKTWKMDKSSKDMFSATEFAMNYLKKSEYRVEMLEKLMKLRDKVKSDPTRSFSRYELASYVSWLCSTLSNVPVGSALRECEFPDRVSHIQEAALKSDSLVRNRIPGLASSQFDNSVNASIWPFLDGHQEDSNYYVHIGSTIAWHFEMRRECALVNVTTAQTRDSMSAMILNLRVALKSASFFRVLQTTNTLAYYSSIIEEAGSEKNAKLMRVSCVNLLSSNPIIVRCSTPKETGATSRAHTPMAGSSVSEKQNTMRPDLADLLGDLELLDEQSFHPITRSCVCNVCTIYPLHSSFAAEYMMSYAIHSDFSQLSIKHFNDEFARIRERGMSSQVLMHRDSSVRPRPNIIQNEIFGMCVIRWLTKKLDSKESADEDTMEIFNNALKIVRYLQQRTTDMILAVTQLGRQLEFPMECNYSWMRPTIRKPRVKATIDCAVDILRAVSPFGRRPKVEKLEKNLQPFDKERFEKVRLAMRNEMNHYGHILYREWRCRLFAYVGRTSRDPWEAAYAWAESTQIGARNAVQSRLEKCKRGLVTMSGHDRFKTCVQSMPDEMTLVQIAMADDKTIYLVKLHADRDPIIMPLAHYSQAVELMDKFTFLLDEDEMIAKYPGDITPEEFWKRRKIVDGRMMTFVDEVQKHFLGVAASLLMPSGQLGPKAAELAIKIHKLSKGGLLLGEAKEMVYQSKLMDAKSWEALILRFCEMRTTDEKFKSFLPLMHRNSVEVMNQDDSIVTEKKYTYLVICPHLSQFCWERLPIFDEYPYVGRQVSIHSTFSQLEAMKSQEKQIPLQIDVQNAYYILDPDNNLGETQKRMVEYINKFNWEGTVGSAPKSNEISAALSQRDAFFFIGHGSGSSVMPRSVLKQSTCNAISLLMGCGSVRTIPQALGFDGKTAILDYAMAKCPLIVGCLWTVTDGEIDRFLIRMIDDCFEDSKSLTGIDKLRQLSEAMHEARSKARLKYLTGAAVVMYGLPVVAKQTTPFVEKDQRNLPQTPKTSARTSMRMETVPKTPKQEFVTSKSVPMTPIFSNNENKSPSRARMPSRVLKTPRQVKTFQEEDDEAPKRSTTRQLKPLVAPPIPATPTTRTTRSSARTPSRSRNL
Briefly: negative-stain electron microscopy, single particle reconstruction; purified full-length separase-securin complex on carbon-coated grids, 2% w/v uranyl acetate; map at about 21-24 Å; both purified.

Experiment [3] concerns the target T3, StrepII-tagged C. elegans separase (aa 1–1140) (C. elegans) (UniProt G5ED39).
T3 sequence: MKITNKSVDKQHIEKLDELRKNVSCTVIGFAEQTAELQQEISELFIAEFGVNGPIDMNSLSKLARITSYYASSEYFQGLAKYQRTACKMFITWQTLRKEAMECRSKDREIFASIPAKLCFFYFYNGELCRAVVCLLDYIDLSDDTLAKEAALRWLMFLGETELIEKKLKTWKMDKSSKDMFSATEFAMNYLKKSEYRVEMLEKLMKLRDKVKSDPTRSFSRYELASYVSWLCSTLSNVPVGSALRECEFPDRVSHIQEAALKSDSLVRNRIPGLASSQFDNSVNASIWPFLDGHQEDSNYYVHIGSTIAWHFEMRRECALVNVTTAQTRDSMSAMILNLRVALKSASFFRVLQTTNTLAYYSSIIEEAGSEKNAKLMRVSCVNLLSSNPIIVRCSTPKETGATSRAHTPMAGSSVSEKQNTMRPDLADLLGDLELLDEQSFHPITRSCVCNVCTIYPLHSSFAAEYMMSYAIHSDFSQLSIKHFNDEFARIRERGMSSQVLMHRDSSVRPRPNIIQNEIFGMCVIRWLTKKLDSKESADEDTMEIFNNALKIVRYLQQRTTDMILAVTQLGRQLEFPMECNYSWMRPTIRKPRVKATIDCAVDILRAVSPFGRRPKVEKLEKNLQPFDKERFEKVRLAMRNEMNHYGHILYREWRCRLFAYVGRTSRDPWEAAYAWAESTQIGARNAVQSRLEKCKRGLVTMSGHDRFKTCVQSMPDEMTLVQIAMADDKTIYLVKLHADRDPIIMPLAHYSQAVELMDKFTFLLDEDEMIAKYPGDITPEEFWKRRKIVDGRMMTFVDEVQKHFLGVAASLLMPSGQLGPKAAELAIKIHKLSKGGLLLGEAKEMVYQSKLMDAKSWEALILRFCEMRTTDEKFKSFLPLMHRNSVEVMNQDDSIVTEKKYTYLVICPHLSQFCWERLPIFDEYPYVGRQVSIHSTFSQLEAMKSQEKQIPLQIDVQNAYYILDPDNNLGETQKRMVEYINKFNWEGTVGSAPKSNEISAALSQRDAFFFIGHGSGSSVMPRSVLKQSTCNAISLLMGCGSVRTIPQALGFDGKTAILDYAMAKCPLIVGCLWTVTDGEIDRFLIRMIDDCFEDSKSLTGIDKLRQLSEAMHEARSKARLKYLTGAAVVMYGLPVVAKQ
The experiment is described as follows: pull-down; separase 1-1140 and securin or its fragments co-expressed in Sf9 cells for 72 h; soluble lysate incubated with StrepTactin resin 1 h at 4°C to bind StrepII-separase, washed four times in PBS; SDS-PAGE and Western blot. In general terms: Immunoblotting shows a protein as a band on a membrane.

B1: His6-tagged C. elegans securin (protein, UniProt Q18235 1-244)
chain: MEDLNFEERGSTQIPASLQQHFSAKLGRQNELEKTPSRGGLGLVVNSSKTPGGKSLQSLASACKVPPSTKKNTIPIAFECYEDETDDQIADVATIKKTEKHPCSPIDTANRCETFDSLAADIEDDMLNLEDQDVVLSEDRPYGDVIDPAESEAEALAELGVEEWDSYPPIDPASRIGDDFNYVLRTEDFAEEGDVKLEETRHRTVIADIDEVKMSKAERNELFSMLADDLDSYDLLAEEANLPL
On to B1, for which the binding result in experiment [1] was “binds”.

B2: full-length C. elegans securin (co-expressed with StrepII-tagged separase) (natural protein, UniProt Q18235 1-244, looked up)
chain: MEDLNFEERGSTQIPASLQQHFSAKLGRQNELEKTPSRGGLGLVVNSSKTPGGKSLQSLASACKVPPSTKKNTIPIAFECYEDETDDQIADVATIKKTEKHPCSPIDTANRCETFDSLAADIEDDMLNLEDQDVVLSEDRPYGDVIDPAESEAEALAELGVEEWDSYPPIDPASRIGDDFNYVLRTEDFAEEGDVKLEETRHRTVIADIDEVKMSKAERNELFSMLADDLDSYDLLAEEANLPL
notes: it may be the same construct as m2; also called securin FL; source: Sf9 insect cells, co-expressed with StrepII-separase; in soluble lysate (pull-down) and purified as complex (StrepTactin, SEC)
In the case of B2, the binding entry in experiment [2] and in experiment [3] was “binds” in each case.

B3: C. elegans securin fragment 77–244 (domain or fragment, UniProt Q18235 77-244)
chain: AFECYEDETDDQIADVATIKKTEKHPCSPIDTANRCETFDSLAADIEDDMLNLEDQDVVLSEDRPYGDVIDPAESEAEALAELGVEEWDSYPPIDPASRIGDDFNYVLRTEDFAEEGDVKLEETRHRTVIADIDEVKMSKAERNELFSMLADDLDSYDLLAEEANLPL
Take B3: the binding result in experiment [3] was “binds”.
